According to the supplement of paper PMC10849652:
The other results are listed elsewhere or left out.

Chains of the proteins cited; added tags and fusions are not shown. Lines headed by an entry give the natural chain unless they say otherwise; changes in a name come on top.
UniProt Q99828: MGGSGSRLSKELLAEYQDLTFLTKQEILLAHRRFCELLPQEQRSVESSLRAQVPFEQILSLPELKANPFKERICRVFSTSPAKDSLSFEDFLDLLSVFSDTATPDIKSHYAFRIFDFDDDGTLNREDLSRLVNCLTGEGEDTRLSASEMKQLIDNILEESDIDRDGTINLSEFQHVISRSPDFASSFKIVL
UniProt Q14008: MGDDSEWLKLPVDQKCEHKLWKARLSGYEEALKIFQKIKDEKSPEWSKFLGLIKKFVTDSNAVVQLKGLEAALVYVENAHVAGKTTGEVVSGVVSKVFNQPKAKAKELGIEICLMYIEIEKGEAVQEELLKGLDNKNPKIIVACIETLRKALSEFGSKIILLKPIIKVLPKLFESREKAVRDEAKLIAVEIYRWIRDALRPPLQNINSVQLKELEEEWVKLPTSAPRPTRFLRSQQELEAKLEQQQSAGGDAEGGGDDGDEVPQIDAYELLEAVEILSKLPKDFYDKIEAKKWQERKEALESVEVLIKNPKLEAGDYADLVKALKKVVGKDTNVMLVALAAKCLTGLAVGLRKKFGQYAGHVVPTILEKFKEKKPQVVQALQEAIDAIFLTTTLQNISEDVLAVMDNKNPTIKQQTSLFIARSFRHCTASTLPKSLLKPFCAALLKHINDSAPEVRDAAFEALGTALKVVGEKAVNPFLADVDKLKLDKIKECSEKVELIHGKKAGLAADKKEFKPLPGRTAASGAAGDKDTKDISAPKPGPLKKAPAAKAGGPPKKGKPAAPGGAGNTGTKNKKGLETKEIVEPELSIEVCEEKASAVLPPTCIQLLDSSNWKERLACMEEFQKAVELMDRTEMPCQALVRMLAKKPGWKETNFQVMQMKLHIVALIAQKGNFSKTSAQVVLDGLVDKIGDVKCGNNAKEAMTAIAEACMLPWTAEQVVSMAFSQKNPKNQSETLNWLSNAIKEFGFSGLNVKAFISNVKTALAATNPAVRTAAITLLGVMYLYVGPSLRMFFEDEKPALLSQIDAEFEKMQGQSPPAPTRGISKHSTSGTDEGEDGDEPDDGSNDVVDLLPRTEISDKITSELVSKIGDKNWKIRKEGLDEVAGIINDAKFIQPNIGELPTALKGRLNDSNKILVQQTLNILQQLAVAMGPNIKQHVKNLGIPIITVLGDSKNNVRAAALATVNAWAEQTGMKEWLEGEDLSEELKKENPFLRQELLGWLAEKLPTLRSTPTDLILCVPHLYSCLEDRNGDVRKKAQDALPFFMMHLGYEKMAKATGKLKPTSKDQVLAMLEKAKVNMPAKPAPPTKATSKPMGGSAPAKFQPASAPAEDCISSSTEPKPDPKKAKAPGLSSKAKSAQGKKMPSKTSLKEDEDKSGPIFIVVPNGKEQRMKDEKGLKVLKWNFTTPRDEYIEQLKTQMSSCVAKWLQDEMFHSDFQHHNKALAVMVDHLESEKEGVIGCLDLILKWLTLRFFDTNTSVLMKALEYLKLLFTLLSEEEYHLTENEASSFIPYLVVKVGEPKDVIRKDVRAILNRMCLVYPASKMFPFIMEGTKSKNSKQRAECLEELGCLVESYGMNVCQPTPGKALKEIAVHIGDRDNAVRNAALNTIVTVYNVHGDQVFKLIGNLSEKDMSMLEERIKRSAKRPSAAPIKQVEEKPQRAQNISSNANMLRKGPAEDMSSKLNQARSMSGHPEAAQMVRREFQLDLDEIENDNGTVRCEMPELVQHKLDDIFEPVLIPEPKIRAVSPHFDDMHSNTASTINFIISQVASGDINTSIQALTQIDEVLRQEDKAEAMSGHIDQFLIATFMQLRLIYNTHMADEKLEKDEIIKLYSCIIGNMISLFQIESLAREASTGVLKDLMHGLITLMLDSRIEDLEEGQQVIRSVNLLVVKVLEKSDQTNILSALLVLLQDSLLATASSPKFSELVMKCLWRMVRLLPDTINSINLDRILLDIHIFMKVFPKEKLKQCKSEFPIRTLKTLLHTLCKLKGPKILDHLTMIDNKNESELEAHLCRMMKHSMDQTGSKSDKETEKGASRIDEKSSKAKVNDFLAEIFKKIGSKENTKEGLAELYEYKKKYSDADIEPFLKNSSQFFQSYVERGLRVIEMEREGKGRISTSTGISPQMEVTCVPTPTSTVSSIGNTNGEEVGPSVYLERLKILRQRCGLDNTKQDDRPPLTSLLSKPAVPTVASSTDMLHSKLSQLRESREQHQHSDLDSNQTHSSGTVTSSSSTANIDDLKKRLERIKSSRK
UniProt Q8WYQ3: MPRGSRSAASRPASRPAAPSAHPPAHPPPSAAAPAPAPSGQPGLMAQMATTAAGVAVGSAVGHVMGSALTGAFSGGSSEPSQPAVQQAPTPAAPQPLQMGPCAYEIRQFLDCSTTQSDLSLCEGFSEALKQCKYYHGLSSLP
UniProt Q9BWS9: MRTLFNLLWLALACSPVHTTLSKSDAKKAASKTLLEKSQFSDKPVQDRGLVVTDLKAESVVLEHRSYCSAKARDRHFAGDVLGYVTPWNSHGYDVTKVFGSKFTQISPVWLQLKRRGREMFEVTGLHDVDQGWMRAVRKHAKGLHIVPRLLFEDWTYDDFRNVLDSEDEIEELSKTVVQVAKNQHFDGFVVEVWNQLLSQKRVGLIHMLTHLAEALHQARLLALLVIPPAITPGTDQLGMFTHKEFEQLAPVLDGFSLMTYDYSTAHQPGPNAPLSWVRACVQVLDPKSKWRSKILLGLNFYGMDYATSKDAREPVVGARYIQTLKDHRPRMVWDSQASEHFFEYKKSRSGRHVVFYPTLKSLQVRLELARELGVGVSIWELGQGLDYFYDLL
UniProt O14646: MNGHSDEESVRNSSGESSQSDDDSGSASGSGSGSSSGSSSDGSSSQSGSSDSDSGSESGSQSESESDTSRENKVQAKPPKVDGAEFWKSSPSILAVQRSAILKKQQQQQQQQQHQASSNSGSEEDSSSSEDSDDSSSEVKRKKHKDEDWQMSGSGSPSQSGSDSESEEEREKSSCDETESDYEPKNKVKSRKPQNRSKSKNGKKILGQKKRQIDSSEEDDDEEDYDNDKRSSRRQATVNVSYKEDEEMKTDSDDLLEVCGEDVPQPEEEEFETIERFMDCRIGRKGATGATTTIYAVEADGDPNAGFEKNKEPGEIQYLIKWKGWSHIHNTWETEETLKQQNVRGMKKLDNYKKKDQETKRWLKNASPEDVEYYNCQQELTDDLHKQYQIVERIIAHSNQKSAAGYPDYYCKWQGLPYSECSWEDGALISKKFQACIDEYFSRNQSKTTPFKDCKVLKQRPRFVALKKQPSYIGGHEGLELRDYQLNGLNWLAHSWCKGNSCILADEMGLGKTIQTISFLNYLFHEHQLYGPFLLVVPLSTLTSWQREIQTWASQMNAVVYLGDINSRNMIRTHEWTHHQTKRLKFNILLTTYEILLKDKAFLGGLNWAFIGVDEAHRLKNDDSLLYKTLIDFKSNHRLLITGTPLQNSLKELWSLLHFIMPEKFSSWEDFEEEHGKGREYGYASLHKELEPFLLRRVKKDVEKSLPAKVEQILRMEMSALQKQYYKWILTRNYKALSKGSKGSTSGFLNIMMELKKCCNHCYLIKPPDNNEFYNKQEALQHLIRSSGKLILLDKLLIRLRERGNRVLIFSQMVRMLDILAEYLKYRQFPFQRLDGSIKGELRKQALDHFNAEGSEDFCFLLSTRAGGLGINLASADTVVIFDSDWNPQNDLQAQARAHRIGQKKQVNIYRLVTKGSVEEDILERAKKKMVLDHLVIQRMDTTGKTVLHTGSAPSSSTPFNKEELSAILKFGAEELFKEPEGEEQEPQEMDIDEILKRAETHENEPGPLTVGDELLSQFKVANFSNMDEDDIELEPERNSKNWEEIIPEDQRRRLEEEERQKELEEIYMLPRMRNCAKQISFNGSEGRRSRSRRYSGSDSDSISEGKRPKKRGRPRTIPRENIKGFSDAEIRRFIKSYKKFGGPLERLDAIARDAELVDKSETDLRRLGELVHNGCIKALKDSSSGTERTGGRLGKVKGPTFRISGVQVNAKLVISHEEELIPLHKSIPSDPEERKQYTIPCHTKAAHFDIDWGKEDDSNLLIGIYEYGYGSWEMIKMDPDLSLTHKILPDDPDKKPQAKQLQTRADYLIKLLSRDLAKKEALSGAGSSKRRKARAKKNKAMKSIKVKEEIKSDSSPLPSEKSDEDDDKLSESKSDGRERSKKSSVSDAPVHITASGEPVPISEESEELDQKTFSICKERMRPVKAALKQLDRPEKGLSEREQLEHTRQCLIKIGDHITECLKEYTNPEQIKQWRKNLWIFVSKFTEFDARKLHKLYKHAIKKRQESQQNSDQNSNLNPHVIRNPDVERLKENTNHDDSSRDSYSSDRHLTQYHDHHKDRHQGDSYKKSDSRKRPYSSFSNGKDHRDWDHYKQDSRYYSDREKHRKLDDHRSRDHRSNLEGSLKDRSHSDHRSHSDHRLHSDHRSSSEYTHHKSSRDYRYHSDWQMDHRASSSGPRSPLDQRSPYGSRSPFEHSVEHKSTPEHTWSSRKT
UniProt Q9UKJ5: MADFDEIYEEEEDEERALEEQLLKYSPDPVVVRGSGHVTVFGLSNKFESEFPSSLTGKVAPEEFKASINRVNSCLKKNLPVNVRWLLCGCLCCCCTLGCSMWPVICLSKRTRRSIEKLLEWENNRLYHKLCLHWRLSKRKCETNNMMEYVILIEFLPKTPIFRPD
UniProt P30085: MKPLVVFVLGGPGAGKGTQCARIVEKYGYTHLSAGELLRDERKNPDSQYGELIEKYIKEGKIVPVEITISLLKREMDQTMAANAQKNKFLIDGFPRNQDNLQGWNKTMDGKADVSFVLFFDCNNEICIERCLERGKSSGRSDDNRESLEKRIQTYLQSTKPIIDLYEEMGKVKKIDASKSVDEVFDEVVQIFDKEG
UniProt Q6FI81: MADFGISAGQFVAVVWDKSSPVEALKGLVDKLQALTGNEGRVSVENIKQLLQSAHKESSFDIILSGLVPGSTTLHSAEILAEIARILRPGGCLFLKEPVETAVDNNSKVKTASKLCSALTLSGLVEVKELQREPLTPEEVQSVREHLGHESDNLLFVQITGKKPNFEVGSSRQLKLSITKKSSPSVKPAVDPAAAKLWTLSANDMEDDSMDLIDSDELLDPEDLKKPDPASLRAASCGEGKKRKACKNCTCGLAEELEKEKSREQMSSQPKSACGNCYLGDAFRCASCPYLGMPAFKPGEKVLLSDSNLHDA
UniProt O75122: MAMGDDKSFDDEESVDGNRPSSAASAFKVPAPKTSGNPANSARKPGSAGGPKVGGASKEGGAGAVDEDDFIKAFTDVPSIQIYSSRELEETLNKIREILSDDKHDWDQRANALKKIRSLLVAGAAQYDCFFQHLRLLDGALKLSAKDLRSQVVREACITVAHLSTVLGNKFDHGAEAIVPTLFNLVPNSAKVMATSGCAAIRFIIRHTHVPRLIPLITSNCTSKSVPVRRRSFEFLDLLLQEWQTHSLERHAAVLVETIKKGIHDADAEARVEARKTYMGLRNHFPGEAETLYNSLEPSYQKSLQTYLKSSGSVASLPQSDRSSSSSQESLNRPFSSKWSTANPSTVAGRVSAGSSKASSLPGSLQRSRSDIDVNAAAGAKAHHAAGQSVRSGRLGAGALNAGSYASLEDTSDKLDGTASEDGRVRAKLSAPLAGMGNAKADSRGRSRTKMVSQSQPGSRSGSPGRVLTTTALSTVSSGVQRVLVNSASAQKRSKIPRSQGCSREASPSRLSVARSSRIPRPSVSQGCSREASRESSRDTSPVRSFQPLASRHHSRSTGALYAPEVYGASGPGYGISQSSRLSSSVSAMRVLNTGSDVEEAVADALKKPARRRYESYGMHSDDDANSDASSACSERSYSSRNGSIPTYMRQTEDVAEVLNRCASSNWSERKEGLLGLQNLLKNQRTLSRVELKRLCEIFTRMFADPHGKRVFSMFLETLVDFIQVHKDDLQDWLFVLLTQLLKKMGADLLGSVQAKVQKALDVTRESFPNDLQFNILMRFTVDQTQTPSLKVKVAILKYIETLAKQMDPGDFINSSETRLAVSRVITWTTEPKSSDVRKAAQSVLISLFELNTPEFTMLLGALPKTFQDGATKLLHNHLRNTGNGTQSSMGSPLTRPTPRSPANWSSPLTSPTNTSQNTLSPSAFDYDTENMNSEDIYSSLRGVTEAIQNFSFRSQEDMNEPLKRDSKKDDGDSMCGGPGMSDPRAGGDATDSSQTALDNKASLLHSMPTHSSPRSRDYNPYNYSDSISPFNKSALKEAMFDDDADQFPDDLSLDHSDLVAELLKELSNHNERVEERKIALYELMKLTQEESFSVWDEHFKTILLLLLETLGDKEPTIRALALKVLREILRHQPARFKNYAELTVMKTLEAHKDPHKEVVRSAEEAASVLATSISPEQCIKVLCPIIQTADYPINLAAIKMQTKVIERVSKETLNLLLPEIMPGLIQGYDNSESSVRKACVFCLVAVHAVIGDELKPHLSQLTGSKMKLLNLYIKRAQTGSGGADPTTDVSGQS
UniProt P33552, whole entry, looked up: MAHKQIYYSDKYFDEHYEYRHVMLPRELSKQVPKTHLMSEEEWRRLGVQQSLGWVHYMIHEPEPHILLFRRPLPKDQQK

Assays:
Assay in all cases: log2 fold change, soluble protein after heating vs DMSO (PISA); higher = thermal stabilisation; K562 lysate, 10 uM; active = over 0.2 and 3.5 SD of the protein, either way, in both replicates (recomputed)
[1] = compound: NCC(=O)Nc1ccc(-n2nc(C(F)(F)F)cc2-c2ccc3c(ccc4ccccc43)c2)cc1
Summary of the method: (§1)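 Thermal stability, expressed as log-two fold change relative to solvent controls, is given from duplicates. Crude K562 extract in PBS pH 7.4 with 1 mM MgCl2, at 1 mg/mL protein, was treated with 10 μM compound for 30 min and heated in aliquots for 3 min across 48°C-58°C. After pooling, adjustment to 0.5% NP-40 at 4°C and centrifugation at 21,000xg for 90 min, supernatant protein was measured by TMTpro 16plex LC-MS/MS with channel sums equalised.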

vorinostat = compound: O=C(CCCCCCC(=O)Nc1ccccc1)NO [vorinostat]
Summary of the method: as §1

silmitasertib = compound: O=C(O)c1ccc2c(c1)nc(Nc1cccc(Cl)c1)c1ccncc12 [silmitasertib]
Summary of the method: as §1

[2] = compound: O=C1NC(=O)C(c2cnc3ccccn23)=C1c1cn2c3c(cc(F)cc13)CN(C(=O)N1CCCCC1)CC2
Summary of the method: as §1

entospletinib = compound: c1cn2cc(-c3ccc4cn[nH]c4c3)nc(Nc3ccc(N4CCOCC4)cc3)c2n1 [entospletinib]
Summary of the method: as §1

Measured: log2 fold change

CIB1 (UniProt Q99828)
inactive: [1] -0.027 | vorinostat 0.049 | silmitasertib -0.006 | [2] -0.037 | entospletinib -0.091

CKAP5 (UniProt Q14008)
inactive: [1] -0.013 | silmitasertib 0.011 | [2] 0.002 | entospletinib 0.005
active: vorinostat -0.269

CHCHD10 (UniProt Q8WYQ3)
inactive: [1] 0.029 | vorinostat 0.034 | silmitasertib 0.036 | entospletinib -0.122

CHID1 (UniProt Q9BWS9)
inactive: [1] 0.008 | vorinostat 0.067 | silmitasertib -0.018 | [2] 0.027 | entospletinib 0.007

CHD1 (UniProt O14646)
inactive: [1] -0.053 | vorinostat -0.045 | silmitasertib 0 | [2] -0.092 | entospletinib -0.014

CHCHD4 isoform 2 (UniProt Q8N4Q1)
inactive: [1] 0.06 | vorinostat 0.207 | silmitasertib -0.145 | [2] -0.027 | entospletinib 0.01

Two successive records already listed, for reference:
CHCHD10 (UniProt Q8WYQ3)
inactive: [1] 0.029 | vorinostat 0.034 | silmitasertib 0.036 | entospletinib -0.122

CHID1 (UniProt Q9BWS9)
inactive: [1] 0.008 | vorinostat 0.067 | silmitasertib -0.018 | [2] 0.027 | entospletinib 0.007

Next part:

CHIC2 (UniProt Q9UKJ5)
inactive: [1] -0.014 | vorinostat -0.04 | silmitasertib 0.094 | entospletinib -0.066

CKMT1A (UniProt P12532)
inactive: [1] 0.017 | vorinostat 0.07 | silmitasertib -0.041 | [2] -0.004 | entospletinib -0.047

CMPK1 (UniProt P30085)
inactive: [1] -0.04 | vorinostat 0.008 | silmitasertib -0.071 | [2] 0.005 | entospletinib 0.022

CIAPIN1 (UniProt Q6FI81)
inactive: [1] 0.005 | vorinostat 0.018 | silmitasertib -0.022 | [2] 0.003 | entospletinib 0.01

CLASP2 (UniProt O75122)
inactive: [1] 0.052

CKS2 (UniProt P33552)
inactive: [1] -0.266
